Results published in US20100189713A1 (Biogen, published 2010).
Results are given in words; binding and its absence hold for the method and conditions named. Some binding calls cover weakened binding; strength is not graded here.

By UniProt entry, the sequences of proteins in these tests, tags left out. Residues count along the entry.
UniProt P70207, residues 35-1894: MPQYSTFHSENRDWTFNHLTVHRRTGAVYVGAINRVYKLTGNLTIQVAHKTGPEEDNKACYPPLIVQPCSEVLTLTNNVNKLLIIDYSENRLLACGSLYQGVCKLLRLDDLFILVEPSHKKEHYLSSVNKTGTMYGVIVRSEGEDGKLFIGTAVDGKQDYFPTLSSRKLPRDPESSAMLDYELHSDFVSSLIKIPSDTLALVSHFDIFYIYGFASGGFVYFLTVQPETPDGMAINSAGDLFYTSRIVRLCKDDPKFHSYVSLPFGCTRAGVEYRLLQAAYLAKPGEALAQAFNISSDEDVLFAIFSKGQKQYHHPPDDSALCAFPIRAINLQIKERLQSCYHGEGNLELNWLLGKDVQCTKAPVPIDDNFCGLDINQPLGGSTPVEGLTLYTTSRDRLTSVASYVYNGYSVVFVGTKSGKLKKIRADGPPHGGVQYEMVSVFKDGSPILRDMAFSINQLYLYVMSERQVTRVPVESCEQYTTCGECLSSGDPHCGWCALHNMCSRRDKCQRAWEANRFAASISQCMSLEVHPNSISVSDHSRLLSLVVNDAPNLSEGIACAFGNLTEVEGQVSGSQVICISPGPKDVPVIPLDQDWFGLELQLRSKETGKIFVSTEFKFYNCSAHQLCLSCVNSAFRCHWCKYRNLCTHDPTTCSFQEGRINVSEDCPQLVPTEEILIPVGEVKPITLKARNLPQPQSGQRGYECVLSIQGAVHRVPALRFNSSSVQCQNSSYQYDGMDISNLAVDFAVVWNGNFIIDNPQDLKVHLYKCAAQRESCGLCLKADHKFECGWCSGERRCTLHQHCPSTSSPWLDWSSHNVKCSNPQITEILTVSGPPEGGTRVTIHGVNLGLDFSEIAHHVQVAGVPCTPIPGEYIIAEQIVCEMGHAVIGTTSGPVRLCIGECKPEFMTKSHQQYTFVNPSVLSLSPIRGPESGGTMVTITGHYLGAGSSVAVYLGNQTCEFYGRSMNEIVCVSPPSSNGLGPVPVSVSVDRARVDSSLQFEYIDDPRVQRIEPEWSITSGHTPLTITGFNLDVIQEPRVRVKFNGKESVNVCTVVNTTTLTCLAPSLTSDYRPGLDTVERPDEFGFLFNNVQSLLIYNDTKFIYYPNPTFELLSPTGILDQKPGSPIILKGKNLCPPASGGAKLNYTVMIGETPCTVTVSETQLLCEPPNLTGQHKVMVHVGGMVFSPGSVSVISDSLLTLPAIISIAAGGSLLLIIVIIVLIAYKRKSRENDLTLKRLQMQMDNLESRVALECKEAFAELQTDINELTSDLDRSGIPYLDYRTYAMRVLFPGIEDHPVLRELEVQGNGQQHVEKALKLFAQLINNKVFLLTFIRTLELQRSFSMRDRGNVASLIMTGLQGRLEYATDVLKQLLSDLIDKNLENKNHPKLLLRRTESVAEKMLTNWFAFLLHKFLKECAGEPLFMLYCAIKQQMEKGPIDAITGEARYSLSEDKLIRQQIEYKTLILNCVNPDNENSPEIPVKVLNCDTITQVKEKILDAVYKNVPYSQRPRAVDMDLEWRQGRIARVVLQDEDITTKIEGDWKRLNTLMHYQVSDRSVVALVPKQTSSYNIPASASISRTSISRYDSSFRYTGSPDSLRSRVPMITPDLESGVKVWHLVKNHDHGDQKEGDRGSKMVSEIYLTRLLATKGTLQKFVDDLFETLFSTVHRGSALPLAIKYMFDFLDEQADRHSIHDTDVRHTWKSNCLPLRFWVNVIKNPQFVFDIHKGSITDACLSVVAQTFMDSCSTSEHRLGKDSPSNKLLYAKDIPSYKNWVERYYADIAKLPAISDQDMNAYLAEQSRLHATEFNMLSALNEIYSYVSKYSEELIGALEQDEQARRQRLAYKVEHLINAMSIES

Molecular target: wild-type plexin-A2 expressed in COS7 cells (mouse) (UniProt P70207)
Assay: AP-fusion binding assay on transfected COS7 cells

binding: binds
B1: Sema6A-AP (ligand, UniProt O35464 19-649, looked up)
chain: GFPEDSEPISISHGNYTKQYPVFVGHKPGRNTTQRHRLDIQMIMIMNRTLYVAARDHIYTVDIDTSHTEEIYCSKKLTWKSRQADVDTCRMKGKHKDECHNFIKVLLKKNDDTLFVCGTNAFNPSCRNYRVDTLETFGDEFSGMARCPYDAKHANIALFADGKLYSATVTDFLAIDAVIYRSLGDSPTLRTVKHDSKWLKEPYFVQAVDYGDYIYFFFREIAVEYNTMGKVVFPRVAQVCKNDMGGSQRVLEKQWTSFLKARLNCSVPGDSHFYFNILQAVTDVIRINGRDVVLATFSTPYNSIPGSAVCAYDMLDIANVFTGRFKEQKSPDSTWTPVPDERVPKPRPGCCAGSSSLEKYATSNEFPDDTLNFIKTHPLMDEAVPSIINRPWFLRTMVRYRLTKIAVDNAAGPYQNHTVVFLGSEKGIILKFLARIGSSGFLNGSLFLEEMNVYNPEKCSYDGVEDKRIMGMQLDRASGSLYVAFSTCVIKVPLGRCERHGKCKKTCIASRDPYCGWVRESGSCAHLSPLSRLTFEQDIERGNTDGLGDCHNSFVALNGHASSLYPSTTTSDSASRDGYESRGGMLDWNDLLEAPGSTDPLGAVSSHNHQDKKGVIRESYLKSNDQLVPVT
notes: Printed only as 'Sema6A-AP'; Order of the pieces follows the printed label only; not shown: alkaline phosphatase (AP) tag
